Results: PMC9510373
These are yes or no findings as the source states them, for the method shown. Binding seen in cells or lysates may run through a third protein. Binding can be weak; no strength is given. Where a sequence is shown, tags or fusion partners need not be part of it.

By UniProt entry, the sequences of proteins in these tests, tags left out. Where a name states a change or a piece, a line headed by the entry shows the natural chain unless it says otherwise.
UniProt F1QNG2: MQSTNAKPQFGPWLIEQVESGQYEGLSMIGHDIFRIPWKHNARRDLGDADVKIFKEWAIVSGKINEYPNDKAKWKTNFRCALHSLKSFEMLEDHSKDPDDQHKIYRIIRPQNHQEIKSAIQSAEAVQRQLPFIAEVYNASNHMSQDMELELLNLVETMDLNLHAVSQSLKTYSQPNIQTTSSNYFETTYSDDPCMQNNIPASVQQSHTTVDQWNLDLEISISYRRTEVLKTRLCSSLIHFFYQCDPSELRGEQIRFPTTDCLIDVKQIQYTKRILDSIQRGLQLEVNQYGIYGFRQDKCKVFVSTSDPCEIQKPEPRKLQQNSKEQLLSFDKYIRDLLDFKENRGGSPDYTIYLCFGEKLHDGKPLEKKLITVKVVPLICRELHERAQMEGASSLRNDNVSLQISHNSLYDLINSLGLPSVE
UniProt A0ACM8QIE5: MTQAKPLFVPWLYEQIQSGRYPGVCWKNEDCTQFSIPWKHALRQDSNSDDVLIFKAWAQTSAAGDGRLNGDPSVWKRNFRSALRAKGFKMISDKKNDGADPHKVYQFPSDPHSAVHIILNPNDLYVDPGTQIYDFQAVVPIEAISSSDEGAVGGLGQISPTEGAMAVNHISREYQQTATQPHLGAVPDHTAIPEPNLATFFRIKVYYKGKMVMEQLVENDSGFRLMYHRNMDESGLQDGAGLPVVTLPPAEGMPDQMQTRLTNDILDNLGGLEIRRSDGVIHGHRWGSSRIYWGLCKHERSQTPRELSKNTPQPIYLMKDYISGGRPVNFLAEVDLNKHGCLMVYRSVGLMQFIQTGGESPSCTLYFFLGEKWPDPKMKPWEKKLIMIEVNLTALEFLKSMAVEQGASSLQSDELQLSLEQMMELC

These substances were tested against T1, zebrafish PLAAT1-GFP (zebrafish) (assay: co-IP; cells co-transfected (5 μg of each plasmid), lysed after 24 h in RIPA buffer with protease inhibitors; lysate incubated with α-GFP affinity gel at 4°C overnight, washed three times with ice-cold PBS; Western blotting).
T1 sequence: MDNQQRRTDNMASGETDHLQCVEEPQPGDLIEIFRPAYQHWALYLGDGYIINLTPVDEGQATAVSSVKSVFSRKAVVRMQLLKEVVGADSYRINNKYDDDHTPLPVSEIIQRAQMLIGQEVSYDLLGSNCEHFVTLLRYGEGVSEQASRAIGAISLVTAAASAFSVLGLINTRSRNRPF

Row | Substance | binding
1 | zebrafish Myc-IRF7 (from UniProt F1QNG2) | binds
2 | IRF3-ΔIAD (zebrafish) (domain or fragment) | no binding
3 | IRF7-ΔIAD (zebrafish) (domain or fragment) | no binding

Continued, values first:

Row | binding | Substance
4 | binds | zebrafish Myc-IRF3 (from UniProt A0ACM8QIE5)
5 | binds | IRF7-ΔDBD (zebrafish) (domain or fragment)
6 | binds | IRF3-ΔDBD (zebrafish) (domain or fragment)
